The source of these data is paper PMC10880281.

For this assay, the target named is T1, HK2 (human (endogenous in MHCC97H and HCCLM3)) (UniProt P52789).
T1 sequence: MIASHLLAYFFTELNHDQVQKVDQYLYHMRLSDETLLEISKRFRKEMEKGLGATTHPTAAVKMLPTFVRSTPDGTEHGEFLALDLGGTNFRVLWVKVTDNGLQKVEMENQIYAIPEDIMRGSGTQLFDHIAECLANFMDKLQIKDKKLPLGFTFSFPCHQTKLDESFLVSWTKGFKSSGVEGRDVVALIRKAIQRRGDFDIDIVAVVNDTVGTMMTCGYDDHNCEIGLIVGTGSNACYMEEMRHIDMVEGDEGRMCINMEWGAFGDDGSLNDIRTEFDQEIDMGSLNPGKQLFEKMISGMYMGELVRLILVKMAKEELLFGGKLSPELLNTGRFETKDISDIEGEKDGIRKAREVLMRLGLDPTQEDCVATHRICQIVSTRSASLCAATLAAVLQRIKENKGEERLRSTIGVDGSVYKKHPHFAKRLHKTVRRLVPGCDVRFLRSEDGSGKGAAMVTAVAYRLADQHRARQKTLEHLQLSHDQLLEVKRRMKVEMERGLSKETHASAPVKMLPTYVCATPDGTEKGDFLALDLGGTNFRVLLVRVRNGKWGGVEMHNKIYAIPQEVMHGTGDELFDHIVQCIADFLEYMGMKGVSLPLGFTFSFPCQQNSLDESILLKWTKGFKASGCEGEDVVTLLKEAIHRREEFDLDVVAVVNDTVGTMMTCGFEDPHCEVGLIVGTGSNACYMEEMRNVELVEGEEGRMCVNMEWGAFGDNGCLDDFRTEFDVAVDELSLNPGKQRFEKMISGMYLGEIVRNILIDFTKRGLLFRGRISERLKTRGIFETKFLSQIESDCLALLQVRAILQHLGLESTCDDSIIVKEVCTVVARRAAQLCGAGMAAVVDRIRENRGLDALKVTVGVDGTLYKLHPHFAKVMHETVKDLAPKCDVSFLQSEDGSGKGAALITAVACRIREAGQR
Briefly: co-IP; total cell lysate with 5 µg primary antibody or IgG antibody overnight, agarose A + G 2 h at 4 °C, rinsed three times with PBS, SDS-PAGE and western blot; SQSTM1/P62 with HK2 also tested after USP14 knockdown (sh-USP14), which weakened the interaction. (In general: In western blotting, separated proteins are transferred to a membrane and probed.)

No constants are given. Whether binding was seen depends on the method and setting. In cells and extracts the contact can be indirect. Some entries that bind do so weakly or less than the wild type.

On to SQSTM1/P62 (from UniProt Q13501 1-440), for which the binding entry was “binds”.
